Laboratory results: doi:10.1101/2020.05.08.084814

Experiments:
[1] = target: T1, Stau1 (Staufen1) (Xenopus laevis (endogenous in oocytes)) (UniProt Q6GM35); assay: co-IP
T1 sequence: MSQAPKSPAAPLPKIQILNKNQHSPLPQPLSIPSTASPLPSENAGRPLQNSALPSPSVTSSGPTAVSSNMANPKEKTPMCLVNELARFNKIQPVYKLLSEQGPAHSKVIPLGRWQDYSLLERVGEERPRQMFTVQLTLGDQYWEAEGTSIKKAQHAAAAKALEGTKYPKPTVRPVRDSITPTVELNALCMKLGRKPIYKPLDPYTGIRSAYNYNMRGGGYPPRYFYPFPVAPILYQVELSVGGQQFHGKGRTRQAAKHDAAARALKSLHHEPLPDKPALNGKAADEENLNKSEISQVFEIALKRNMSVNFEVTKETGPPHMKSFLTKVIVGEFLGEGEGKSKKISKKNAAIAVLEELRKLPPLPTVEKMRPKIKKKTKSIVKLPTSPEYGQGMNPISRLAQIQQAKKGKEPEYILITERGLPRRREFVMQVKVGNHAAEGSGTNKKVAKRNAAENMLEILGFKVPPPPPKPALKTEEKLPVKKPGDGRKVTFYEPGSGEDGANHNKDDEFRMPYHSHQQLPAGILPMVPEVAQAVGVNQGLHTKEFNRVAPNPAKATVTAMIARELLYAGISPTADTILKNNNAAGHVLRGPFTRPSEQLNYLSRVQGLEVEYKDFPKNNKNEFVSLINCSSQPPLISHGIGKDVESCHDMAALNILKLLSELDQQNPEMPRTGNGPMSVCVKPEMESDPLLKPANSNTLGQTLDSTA

[2] = target: T2, hnRNPAB (40LoVE) (Xenopus laevis (endogenous in oocytes)); assay: co-IP
T2 sequence: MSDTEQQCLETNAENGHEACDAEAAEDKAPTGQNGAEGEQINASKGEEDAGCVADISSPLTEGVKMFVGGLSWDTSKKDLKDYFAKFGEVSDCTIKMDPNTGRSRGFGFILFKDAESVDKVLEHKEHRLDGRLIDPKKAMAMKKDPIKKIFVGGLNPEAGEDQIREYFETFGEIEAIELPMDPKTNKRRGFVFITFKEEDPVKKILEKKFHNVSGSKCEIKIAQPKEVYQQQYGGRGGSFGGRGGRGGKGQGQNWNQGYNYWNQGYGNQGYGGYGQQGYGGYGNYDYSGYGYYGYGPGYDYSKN

binding [1]: binds
binding [2]: binds
Substance: Vera (Igf2bp3) (Xenopus laevis (endogenous in oocytes))

Results are given in words; binding and its absence hold for the method and conditions named. In cells and extracts the contact can be indirect. Binding can be weak; no strength is given.
